The assay in a line: qHTS Assay for Modulators of Lamin A Splicing. To be noted: HeLa LMNA splicing GFP/RFP minigene ratio, 48 h. In outline: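 S3 HeLa cells stably expressing lamin A-EGFP splicing minigene plus DsRed2, 600 cells/well, 48 h compound exposure at 37C. Laser-scanning cytometry; analysed as GFP (500-530 nm)/RFP (575-640 nm) total intensity ratio; 0.5% DMSO vehicle.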
[1] abbreviates: measured here: GFP splicing reporter channel.
The mark [2] stands for this setting: measured here: RFP viability control channel.

The list shows a part of the results. Shown are side measurements of this screen, not its main read-out; they come without a call. Compounds called inactive in the main read-out are mostly missing here. Potencies come from curve fits of mixed quality, noted in brackets.

`NC[C@@H]1O[C@H](C23CC4CC(CC(C4)C2)C3)Cc2c1ccc(O)c2O`: the AC50 (in general, the midpoint of the concentration-response curve, whichever way the signal moves) is 12.6 µM [falling, partial curve] under setting [1] and 11.2 µM [falling, partial curve] under setting [2].
In the case of `Cc1ccc(SCc2[nH]nc3c2C(c2ccc(C)o2)C(C#N)=C(N)O3)cc1` (centres undefined), the AC50 is 25.1 µM [falling, single point] under setting [1] and 25.1 µM [falling, single point] under setting [2].
With `CCCC(=O)NC(c1ccccc1OC)c1ccc2cccnc2c1O` (centres undefined), the AC50 under setting [1] is 2.51 µM [falling, full curve] and the AC50 under setting [2] is 4.47 µM [falling, partial curve].
Turning to `Cc1nn(C)c(Cl)c1S(=O)(=O)N[C@@H](c1ccccc1)[C@]1(C)C[C@H]1[C@@H](C)C(=O)Nc1ccc2ccccc2c1`, under setting [2], the AC50 was 10 µM [rising, partial curve].
`CCN(CC)c1ccc(-c2nn3c(-c4ccccc4OC)nnc3s2)cc1`: the AC50 by setting is: under setting [1], 0.794 µM [rising, full curve, poor fit]; under setting [2], 0.891 µM [rising, single point].
`CCCCC(CC)CNC(=O)c1[nH]c(C)c(C(C)=O)c1C` (centres undefined): the AC50 under setting [2] is 12.6 µM [rising, partial curve].
`CCC(=O)Nc1cc(NC(=O)CSc2ncc(-c3ccc(F)cc3)n2Cc2ccco2)ccc1C`: under setting [1], the AC50 is 3.98 µM [rising, partial curve].
Take `O=C(Nc1cccc([N+](=O)[O-])c1)c1ccc2ccccc2c1O`: the concentration at half-maximal activity (AC50) is 3.98 µM [rising, full curve, poor fit] under setting [1] and 3.98 µM [rising, full curve, poor fit] under setting [2].
For `Oc1ccc(/C=N/Nc2cc(N3CCCC3)nc(N3CCCC3)n2)cc1O`, the AC50 under setting [2] was 17.8 µM [rising, partial curve].
For the molecule `COc1ccccc1C(=O)NCc1ccc(-c2nc3ccccc3s2)cc1`, the AC50 under setting [1] was 35.5 µM [rising, single point] and the AC50 under setting [2] is 35.5 µM [rising, single point].
As to `O=C(Nc1ccccc1)Nc1ccc(Br)c(Cl)c1`, the AC50 under setting [2] was 20 µM [rising, partial curve].
Regarding `Cc1nc(-n2nc(C)c(Cc3ccccc3Cl)c2C)sc1C(=O)N1CCCCC1C` (centres undefined), the AC50 under setting [1] is 2.24 µM [rising, partial curve, poor fit].
As to `CC(C)(C)NC(=O)CSc1nc(-c2ccccc2)c(-c2ccccc2)[nH]1`, the AC50 under setting [2] is 35.5 µM [rising, single point].
On the same count and under the same terms, with `Nc1cnn(C2OC(CO)C(O)C2O)c(=O)n1` (centres undefined) the figure was 0.0501 µM [rising, full curve].
As for `CCOc1ccc2nc(SC(CC)C(=O)Nc3cc(C)on3)sc2c1` (centres undefined), the AC50 was 35.5 µM [rising, single point] under setting [1] and 35.5 µM [rising, single point] under setting [2].
On to `Cc1ccc(-c2nc(CSCC(=O)Nc3cc(C)on3)c(C)o2)cc1`, for which the concentration at half-maximal activity (AC50) under setting [2] was 35.5 µM [rising, single point].
For `C[C@H](NC(=O)N1CCc2nc(COc3ccccc3)c3c(c2C1)CO[C@@H](C)C3)c1ccccc1`, the AC50 under setting [1] was 0.0794 µM [falling, partial curve] and the half-maximal activity concentration (AC50) under setting [2] is 0.562 µM [falling, single point].
Regarding `S=C(Nc1ccc(Cl)cc1Cl)N1CCOCC1`, the AC50 by setting is: under setting [1], 14.1 µM [rising, single point]; under setting [2], 14.1 µM [rising, partial curve].
In the case of `CCc1ccccc1N(CC)C(=O)c1cn(CC)c(=O)c2cc(OC)c(OC)cc12`, under setting [2], the AC50 was 1.78 µM [rising, single point].
As to `CC(Sc1nnc(-c2ccc(Cl)cc2Cl)n1Cc1ccccc1)C(=O)Nc1nccs1` (centres undefined), the AC50 under setting [2] is 7.94 µM [falling, partial curve, poor fit].
As for `CCCn1c(C)cc(C(=O)CSc2nc3nc(C)cc(C)n3n2)c1C`, the AC50 under setting [1] was 25.1 µM [rising, single point] and the AC50 under setting [2] was 25.1 µM [rising, single point].
With `CCOC(=O)C1(CCCc2ccccc2)CCN(C(=O)C(C)n2cncn2)CC1` (centres undefined), the AC50 was 0.708 µM [falling, partial curve] under setting [1] and 0.141 µM [falling, partial curve] under setting [2].
As to `O=C(O)CC(NC(=O)C1CCCCC1)c1cc([N+](=O)[O-])ccc1Cl` (centres undefined), the AC50 under setting [2] is 1.26 µM [falling, full curve, poor fit].
On the same count and under the same terms, as for `COc1ccc(N=C2SC(C(=O)Nc3ccc(F)cc3)CC(=O)N2C)cc1` (centres undefined), the figure is 0.00316 µM [falling, full curve, poor fit].
On to `CCOC(=O)c1ccc(NC(=O)C(C)Sc2nc(O)c(-c3ccccc3)c(=O)[nH]2)cc1` (centres undefined), for which the AC50 is 0.02 µM [falling, full curve, poor fit] under setting [1] and 0.01 µM [falling, full curve, poor fit] under setting [2].
On to `Cc1ccc(-n2nc(C)c(C3C(C#N)=C(N)OC4=C3C(=O)CC(C)(C)C4)c2Cl)cc1` (centres undefined), for which, under setting [2], the AC50 is 35.5 µM [rising, single point].
Turning to `Cc1cc(C)cc(NC(=O)/C=C/c2ccc([N+](=O)[O-])s2)c1`, the AC50 under setting [2] was 35.5 µM [falling, single point].
Consider `COc1ccc2c(c1)-c1c(ssc1=S)C(C)(C)N2S(=O)(=O)c1ccc(C)cc1`, for which the AC50 by setting is: under setting [1], 10 µM [rising, partial curve, poor fit]; under setting [2], 8.91 µM [rising, partial curve].
For the molecule `COc1ccccc1Nc1nn2c(=O)c3ccc(C(=O)NCc4cccs4)cc3nc2s1`, the AC50 is, setting by setting: under setting [1], 3.55 µM [falling, partial curve]; under setting [2], 7.08 µM [falling, full curve].
As to `COCCNC(=O)NC1(C(F)(F)F)Oc2ccc(Cl)cc2O1` (centres undefined), the AC50 under setting [2] is 35.5 µM [rising, single point].
Regarding `COc1ccc(N2CCN(C(=O)c3ccc(C)c(NC(=O)c4nsc5ccccc45)c3)CC2)cc1`, the AC50 was 35.5 µM [rising, single point] under setting [1] and 35.5 µM [rising, single point] under setting [2].
`COc1ccc(-n2nnnc2SCC(=O)N2C(C)CCCC2C)c(OC)c1` (centres undefined): the half-maximal activity concentration (AC50) is, setting by setting: under setting [1], 20 µM [rising, single point]; under setting [2], 22.4 µM [rising, single point].
Take `C[C@@](Cc1ccc(O)c(O)c1)(NN)C(=O)O`: the AC50 under setting [2] is 12.6 µM [rising, single point].

Values taken from PubChem BioAssay AID1487 (National Center for Advancing Translational Sciences (NCATS), 2009).
